Source: patent publication US20060084618

Chains of the proteins cited; added tags and fusions are not shown. Lines headed by an entry give the natural chain unless they say otherwise; changes in a name come on top. Chains listed by the source or under a name are the forms on record and can include a tag or linker.
UniProt O00482: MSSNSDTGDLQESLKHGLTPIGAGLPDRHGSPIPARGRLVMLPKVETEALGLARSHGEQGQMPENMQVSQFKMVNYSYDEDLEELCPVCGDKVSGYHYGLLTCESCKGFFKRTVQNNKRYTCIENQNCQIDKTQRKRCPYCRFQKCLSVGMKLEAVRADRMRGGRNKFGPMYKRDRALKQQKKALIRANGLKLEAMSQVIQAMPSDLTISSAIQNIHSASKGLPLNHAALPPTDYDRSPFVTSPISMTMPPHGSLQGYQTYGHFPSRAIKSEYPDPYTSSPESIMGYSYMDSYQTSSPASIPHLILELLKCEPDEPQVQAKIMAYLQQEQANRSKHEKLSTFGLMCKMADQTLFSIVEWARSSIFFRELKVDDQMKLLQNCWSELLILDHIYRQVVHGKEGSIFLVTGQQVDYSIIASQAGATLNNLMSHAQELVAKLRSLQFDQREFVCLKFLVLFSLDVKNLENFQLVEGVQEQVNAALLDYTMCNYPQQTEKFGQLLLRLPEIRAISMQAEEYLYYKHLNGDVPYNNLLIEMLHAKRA
PPARγ/RXRα heterodimer (Homo sapiens), one chain, as listed by the source, chain 1 of 2: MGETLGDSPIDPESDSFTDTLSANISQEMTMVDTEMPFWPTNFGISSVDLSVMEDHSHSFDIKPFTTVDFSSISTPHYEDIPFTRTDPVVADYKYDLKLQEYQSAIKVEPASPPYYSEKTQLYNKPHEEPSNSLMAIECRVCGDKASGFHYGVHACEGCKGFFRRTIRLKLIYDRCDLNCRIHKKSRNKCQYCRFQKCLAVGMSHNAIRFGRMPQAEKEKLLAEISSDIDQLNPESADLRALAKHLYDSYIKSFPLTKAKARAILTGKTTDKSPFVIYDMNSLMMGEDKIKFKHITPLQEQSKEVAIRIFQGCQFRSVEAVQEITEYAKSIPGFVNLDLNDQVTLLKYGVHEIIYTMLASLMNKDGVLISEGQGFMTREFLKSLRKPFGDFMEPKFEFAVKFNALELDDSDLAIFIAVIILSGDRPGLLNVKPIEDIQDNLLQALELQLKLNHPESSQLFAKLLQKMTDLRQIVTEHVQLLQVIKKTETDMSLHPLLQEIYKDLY
PPARγ/RXRα heterodimer (Homo sapiens), one chain, as listed by the source, chain 2 of 2: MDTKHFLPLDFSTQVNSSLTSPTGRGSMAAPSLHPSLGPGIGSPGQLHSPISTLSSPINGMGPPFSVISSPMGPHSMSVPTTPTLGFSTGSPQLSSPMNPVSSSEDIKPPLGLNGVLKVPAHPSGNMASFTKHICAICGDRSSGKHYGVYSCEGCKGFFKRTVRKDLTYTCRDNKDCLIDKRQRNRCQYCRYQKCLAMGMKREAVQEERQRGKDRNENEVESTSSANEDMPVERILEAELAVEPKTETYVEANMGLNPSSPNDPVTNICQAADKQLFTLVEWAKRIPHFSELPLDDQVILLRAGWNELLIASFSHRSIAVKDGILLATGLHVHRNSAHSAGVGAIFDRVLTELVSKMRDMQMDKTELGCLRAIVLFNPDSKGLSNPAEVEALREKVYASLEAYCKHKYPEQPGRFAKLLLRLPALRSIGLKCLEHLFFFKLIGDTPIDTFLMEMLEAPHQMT

What was measured:
[1] = molecular target: LRH-1 (Homo sapiens) (UniProt O00482); assay: competition with a labelled probe; conditions: unlabeled competitor 10x and 50x; band only slightly attenuated; synthetic protein; variant of adiponectin LRH-RE probe (-245 to -221)
[2] = tested on: PPARγ/RXRα heterodimer (Homo sapiens); assay: competition with a labelled probe; conditions: unlabeled competitor 10x and 50x; competing effect attenuated; protein translated in vitro; protein details: TNT T7 Quick Coupled (Promega); variant of adiponectin PPRE probe (-291 to -267)

Row | Sequence | binding result [1] | binding result [2]
1 | AATAAGGGTCAACCCCTGGAAACAC (double strand) [mutated LRH-RE competitor] | binds more weakly | 
2 | TGGTTTTGACTTTTGTTCCATCTTC (double strand) [mutated PPRE competitor] |  | binds more weakly

Weaker means in comparison with the reference protein, sequence or condition of that experiment.
